From PMC1828611
Results are given in words; binding and its absence hold for the method and conditions named. Binding seen in cells or lysates may run through a third protein. Binding calls can cover weak binding; strength is not graded here. For part of these data: Tags and fused reporters may be left off the sequences shown.

Protein sequences, listed by entry. Tags and fused reporters are not part of them. Lines headed by an entry give the natural chain unless they say otherwise; changes in a name come on top.
UniProt Q9VCQ7: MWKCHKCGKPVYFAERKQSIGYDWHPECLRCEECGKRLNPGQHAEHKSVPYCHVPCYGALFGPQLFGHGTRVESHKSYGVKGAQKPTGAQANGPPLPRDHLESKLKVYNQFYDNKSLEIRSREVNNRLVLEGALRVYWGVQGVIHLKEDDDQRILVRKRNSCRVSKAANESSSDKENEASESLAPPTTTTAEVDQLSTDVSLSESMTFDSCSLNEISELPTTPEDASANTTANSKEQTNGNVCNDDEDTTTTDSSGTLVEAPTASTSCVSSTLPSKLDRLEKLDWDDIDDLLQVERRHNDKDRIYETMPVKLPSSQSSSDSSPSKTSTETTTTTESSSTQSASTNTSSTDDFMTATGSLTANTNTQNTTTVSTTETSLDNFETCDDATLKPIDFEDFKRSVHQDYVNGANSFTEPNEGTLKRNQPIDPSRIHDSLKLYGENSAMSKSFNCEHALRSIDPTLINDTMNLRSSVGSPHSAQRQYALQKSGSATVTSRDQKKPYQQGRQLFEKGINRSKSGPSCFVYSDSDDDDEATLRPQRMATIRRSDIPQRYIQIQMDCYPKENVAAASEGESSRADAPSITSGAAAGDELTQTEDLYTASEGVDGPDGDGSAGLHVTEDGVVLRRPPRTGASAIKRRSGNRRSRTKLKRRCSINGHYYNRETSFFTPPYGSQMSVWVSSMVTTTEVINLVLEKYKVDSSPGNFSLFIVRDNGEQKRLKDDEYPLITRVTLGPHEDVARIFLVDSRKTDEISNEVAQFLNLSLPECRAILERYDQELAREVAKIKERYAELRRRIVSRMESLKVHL

Experiments:
[1] = biological target: Drosophila RASSF ortholog (dRASSF), endogenous (Drosophila melanogaster (endogenous in Kc cells)) (UniProt Q9VCQ7); test: co-IP; endogenous proteins immunoprecipitated from Kc cell lysates with dRASSF antibodies (or Sav antibodies, Figure S2C); control Myc antibodies; blotted with Hpo66 and dRASSF antibodies
[2] = biological target: GFP-dRASSF (Drosophila melanogaster); test: co-IP; Hpo-Flag or Hpo^ΔC-Flag cotransfected with GFP-dRASSF in Kc cells; anti-dRASSF or control (anti-Myc) immunoprecipitates blotted for GFP-dRASSF and Hpo-Flag
[3] = biological target: GFP-dRASSF (Drosophila melanogaster); test: co-IP; Hpo-Myc, Sav-HA and GFP-dRASSF cotransfected in Kc cells; anti-Myc, anti-HA, anti-dRASSF or control (anti-Flag) immunoprecipitates blotted for GFP-dRASSF, Sav-HA, Hpo-Myc and phospho-MST1
[4] = biological target: Hpo^KD-Flag (kinase-dead form of Hpo) (Drosophila melanogaster) (UniProt Q8T0S6); test: co-IP; separate Kc cell lysates expressing Hpo^KD-Flag, HA-dRASSF and Sav-HA (200 ng or 400 ng) mixed, incubated overnight, immunoprecipitated with Flag antibody; blots probed with HA and Flag antibodies

Binder	binding [1]	binding [3]	further results
Hippo (Hpo), endogenous (protein, UniProt Q8T0S6 1-669) MSEPEVTSVVDMKSPNISSSCSFFKLKKLSEESLLQPPEKVFDIMYKLGEGSYGSVYKAVHKESSSIVAIKLVPVESDLHEIIKEISIMQQCDSPYVVRYYGSYFKQYDLWICMEYCGAGSVSDIMRLRKKTLTEDEIATILSDTLQGLVYLHLRRKIHRDIKAANILLNTEGYAKLADFGVAGQLTDTMAKRNTVIGTPFWMAPEVIEEIGYDCVADIWSLGITALEMAEGKPPYGEIHPMRAIFMIPQKPPPSFREPDRWSTEFIDFVSKCLVKEPDDRATATELLEHEFIRNAKHRSILKPMLEETCAIREQQRANRSFGGVLAASQAKSLATQENGMQQHITDNAFMEDPGTLVPEKFGEYQQSSASDATMIAHAEQGVDEGTLGPGGLRNLSKAAAPAAASSAASPLDMPAVDSGTMVELESNLGTMVINSDSDDSTTAKNNDDQKPRNRYRPQFLEHFDRKNAGDGRGDEKPIATEYSPAAAEQQQQQQQQQQQQQQDEQHLASGANDLNNWEHNMEMQFQQISAINQYGLQQHQQQQQVLMAYPLMNEQLIALNNQPNLLLSNAAPMGQQGIPAAAPAQPPPAYQNQHMHTQSHAYVEGEFEFLKFLTFDDLNQRLCNIDHEMELEIEQLNKKYNAKRQPIVDAMNAKRKRQQNINNNLIKI	binds	–	–
Hpo-Flag (protein, UniProt Q8T0S6 1-669) MSEPEVTSVVDMKSPNISSSCSFFKLKKLSEESLLQPPEKVFDIMYKLGEGSYGSVYKAVHKESSSIVAIKLVPVESDLHEIIKEISIMQQCDSPYVVRYYGSYFKQYDLWICMEYCGAGSVSDIMRLRKKTLTEDEIATILSDTLQGLVYLHLRRKIHRDIKAANILLNTEGYAKLADFGVAGQLTDTMAKRNTVIGTPFWMAPEVIEEIGYDCVADIWSLGITALEMAEGKPPYGEIHPMRAIFMIPQKPPPSFREPDRWSTEFIDFVSKCLVKEPDDRATATELLEHEFIRNAKHRSILKPMLEETCAIREQQRANRSFGGVLAASQAKSLATQENGMQQHITDNAFMEDPGTLVPEKFGEYQQSSASDATMIAHAEQGVDEGTLGPGGLRNLSKAAAPAAASSAASPLDMPAVDSGTMVELESNLGTMVINSDSDDSTTAKNNDDQKPRNRYRPQFLEHFDRKNAGDGRGDEKPIATEYSPAAAEQQQQQQQQQQQQQQDEQHLASGANDLNNWEHNMEMQFQQISAINQYGLQQHQQQQQVLMAYPLMNEQLIALNNQPNLLLSNAAPMGQQGIPAAAPAQPPPAYQNQHMHTQSHAYVEGEFEFLKFLTFDDLNQRLCNIDHEMELEIEQLNKKYNAKRQPIVDAMNAKRKRQQNINNNLIKI	–	–	binding [2]: binds
Hpo-Myc (protein, UniProt Q8T0S6 1-669) MSEPEVTSVVDMKSPNISSSCSFFKLKKLSEESLLQPPEKVFDIMYKLGEGSYGSVYKAVHKESSSIVAIKLVPVESDLHEIIKEISIMQQCDSPYVVRYYGSYFKQYDLWICMEYCGAGSVSDIMRLRKKTLTEDEIATILSDTLQGLVYLHLRRKIHRDIKAANILLNTEGYAKLADFGVAGQLTDTMAKRNTVIGTPFWMAPEVIEEIGYDCVADIWSLGITALEMAEGKPPYGEIHPMRAIFMIPQKPPPSFREPDRWSTEFIDFVSKCLVKEPDDRATATELLEHEFIRNAKHRSILKPMLEETCAIREQQRANRSFGGVLAASQAKSLATQENGMQQHITDNAFMEDPGTLVPEKFGEYQQSSASDATMIAHAEQGVDEGTLGPGGLRNLSKAAAPAAASSAASPLDMPAVDSGTMVELESNLGTMVINSDSDDSTTAKNNDDQKPRNRYRPQFLEHFDRKNAGDGRGDEKPIATEYSPAAAEQQQQQQQQQQQQQQDEQHLASGANDLNNWEHNMEMQFQQISAINQYGLQQHQQQQQVLMAYPLMNEQLIALNNQPNLLLSNAAPMGQQGIPAAAPAQPPPAYQNQHMHTQSHAYVEGEFEFLKFLTFDDLNQRLCNIDHEMELEIEQLNKKYNAKRQPIVDAMNAKRKRQQNINNNLIKI	–	binds	–
Sav-HA (protein, UniProt Q9VCR6 1-608) MNYLTILLCNRKPTMLSRRNKEKSQHKEGVVGKYMKKDTPPDISVINVWSDQRAKKKSLQRCASTSPSCEFHPRSSSTSRNTYSCTDSQPDYYHARRAQSQMPLQQHSHSHPHSLPHPSHPHVRSHPPLPPHQFRASSNQLSQNSSNYVNFEQIERMRRQQSSPLLQTTSSPAPGAGGFQRSYSTTQRQHHPHLGGDSYDADQGLLSASYANMLQLPQRPHSPAHYAVPPQQQQHPQIHQQHASTPFGSTLRFDRAAMSIRERQPRYQPTSSPMQQQQQQQQQQQQQLQHTQLAAHLGGSYSSDSYPIYENPSRVISMRATQSQRSESPIYSNTTASSATLAVVPQHHHQGHLAVPSGSGGGSLSGSGRGGSSGSVRGASTSVQSLYVPPRTPPSAVAGAGGSANGSLQKVPSQQSLTEPEELPLPPGWATQYTLHGRKYYIDHNAHTTHWNHPLEREGLPVGWRRVVSKMHGTYYENQYTGQSQRQHPCLTSYYVYTTSAEPPKAIRPEASLYAPPTHTHNALVPANPYLLEEIPKWLAVYSEADSSKDHLLQFNMFSLPELEGFDSMLVRLFKQELGTIVGFYERYRRALILEKNRRAGQNQNQNQ	–	no binding	binding [4]: binds
Salvador (Sav), endogenous (protein, UniProt Q9VCR6 1-608) MNYLTILLCNRKPTMLSRRNKEKSQHKEGVVGKYMKKDTPPDISVINVWSDQRAKKKSLQRCASTSPSCEFHPRSSSTSRNTYSCTDSQPDYYHARRAQSQMPLQQHSHSHPHSLPHPSHPHVRSHPPLPPHQFRASSNQLSQNSSNYVNFEQIERMRRQQSSPLLQTTSSPAPGAGGFQRSYSTTQRQHHPHLGGDSYDADQGLLSASYANMLQLPQRPHSPAHYAVPPQQQQHPQIHQQHASTPFGSTLRFDRAAMSIRERQPRYQPTSSPMQQQQQQQQQQQQQLQHTQLAAHLGGSYSSDSYPIYENPSRVISMRATQSQRSESPIYSNTTASSATLAVVPQHHHQGHLAVPSGSGGGSLSGSGRGGSSGSVRGASTSVQSLYVPPRTPPSAVAGAGGSANGSLQKVPSQQSLTEPEELPLPPGWATQYTLHGRKYYIDHNAHTTHWNHPLEREGLPVGWRRVVSKMHGTYYENQYTGQSQRQHPCLTSYYVYTTSAEPPKAIRPEASLYAPPTHTHNALVPANPYLLEEIPKWLAVYSEADSSKDHLLQFNMFSLPELEGFDSMLVRLFKQELGTIVGFYERYRRALILEKNRRAGQNQNQNQ	no binding	–	–
